Reference: PMC7999522

The chains behind the UniProt entries cited, without tags or fusion partners. Residues count along the entry.
UniProt Q14152: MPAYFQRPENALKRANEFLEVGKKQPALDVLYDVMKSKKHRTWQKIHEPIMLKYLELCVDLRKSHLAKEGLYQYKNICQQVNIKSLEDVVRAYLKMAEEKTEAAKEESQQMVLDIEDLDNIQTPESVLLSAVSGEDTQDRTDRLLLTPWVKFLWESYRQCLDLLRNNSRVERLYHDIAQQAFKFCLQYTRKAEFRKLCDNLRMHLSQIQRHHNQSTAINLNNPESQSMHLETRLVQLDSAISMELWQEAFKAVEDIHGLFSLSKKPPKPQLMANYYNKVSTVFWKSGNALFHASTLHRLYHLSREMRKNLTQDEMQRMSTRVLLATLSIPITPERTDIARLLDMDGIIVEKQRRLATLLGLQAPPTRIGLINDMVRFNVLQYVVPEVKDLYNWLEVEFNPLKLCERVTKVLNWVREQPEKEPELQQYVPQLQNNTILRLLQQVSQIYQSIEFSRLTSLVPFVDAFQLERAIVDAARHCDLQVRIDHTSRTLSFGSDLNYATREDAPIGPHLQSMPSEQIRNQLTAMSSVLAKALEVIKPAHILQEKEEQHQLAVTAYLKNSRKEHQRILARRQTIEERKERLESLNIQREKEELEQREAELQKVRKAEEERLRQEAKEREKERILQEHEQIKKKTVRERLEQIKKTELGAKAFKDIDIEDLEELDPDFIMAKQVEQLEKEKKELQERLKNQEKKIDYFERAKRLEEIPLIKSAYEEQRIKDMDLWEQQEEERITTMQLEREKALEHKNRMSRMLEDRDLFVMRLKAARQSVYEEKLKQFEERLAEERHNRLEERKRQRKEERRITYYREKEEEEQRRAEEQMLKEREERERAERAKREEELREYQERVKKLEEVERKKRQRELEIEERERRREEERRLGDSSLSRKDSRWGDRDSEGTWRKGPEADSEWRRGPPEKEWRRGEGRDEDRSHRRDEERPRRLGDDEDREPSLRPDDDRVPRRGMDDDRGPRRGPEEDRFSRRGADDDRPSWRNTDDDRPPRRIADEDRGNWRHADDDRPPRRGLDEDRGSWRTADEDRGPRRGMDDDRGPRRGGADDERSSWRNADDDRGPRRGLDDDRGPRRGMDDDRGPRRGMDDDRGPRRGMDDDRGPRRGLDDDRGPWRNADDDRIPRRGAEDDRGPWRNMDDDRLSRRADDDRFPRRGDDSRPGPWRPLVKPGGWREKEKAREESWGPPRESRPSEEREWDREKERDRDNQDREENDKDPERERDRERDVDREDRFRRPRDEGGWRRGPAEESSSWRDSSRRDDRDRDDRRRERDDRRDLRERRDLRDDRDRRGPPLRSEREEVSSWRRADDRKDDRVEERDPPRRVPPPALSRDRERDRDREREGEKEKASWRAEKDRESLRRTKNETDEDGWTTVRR
UniProt P10809, residues 27-573: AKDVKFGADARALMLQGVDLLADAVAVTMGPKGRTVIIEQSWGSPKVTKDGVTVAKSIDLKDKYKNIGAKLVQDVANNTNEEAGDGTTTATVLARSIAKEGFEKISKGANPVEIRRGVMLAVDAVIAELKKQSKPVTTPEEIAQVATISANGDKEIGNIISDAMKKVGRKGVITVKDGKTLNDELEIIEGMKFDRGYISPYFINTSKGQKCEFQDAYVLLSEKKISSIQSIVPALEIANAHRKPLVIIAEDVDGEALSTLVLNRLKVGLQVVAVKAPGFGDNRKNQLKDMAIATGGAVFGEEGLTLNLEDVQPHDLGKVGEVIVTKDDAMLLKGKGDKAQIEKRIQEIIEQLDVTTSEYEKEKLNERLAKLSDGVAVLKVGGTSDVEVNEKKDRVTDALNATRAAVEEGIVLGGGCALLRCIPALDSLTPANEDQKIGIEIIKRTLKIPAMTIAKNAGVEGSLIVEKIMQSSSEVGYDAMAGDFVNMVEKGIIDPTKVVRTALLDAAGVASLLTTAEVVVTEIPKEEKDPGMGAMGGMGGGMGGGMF
UniProt Q02413, residues 50-1049: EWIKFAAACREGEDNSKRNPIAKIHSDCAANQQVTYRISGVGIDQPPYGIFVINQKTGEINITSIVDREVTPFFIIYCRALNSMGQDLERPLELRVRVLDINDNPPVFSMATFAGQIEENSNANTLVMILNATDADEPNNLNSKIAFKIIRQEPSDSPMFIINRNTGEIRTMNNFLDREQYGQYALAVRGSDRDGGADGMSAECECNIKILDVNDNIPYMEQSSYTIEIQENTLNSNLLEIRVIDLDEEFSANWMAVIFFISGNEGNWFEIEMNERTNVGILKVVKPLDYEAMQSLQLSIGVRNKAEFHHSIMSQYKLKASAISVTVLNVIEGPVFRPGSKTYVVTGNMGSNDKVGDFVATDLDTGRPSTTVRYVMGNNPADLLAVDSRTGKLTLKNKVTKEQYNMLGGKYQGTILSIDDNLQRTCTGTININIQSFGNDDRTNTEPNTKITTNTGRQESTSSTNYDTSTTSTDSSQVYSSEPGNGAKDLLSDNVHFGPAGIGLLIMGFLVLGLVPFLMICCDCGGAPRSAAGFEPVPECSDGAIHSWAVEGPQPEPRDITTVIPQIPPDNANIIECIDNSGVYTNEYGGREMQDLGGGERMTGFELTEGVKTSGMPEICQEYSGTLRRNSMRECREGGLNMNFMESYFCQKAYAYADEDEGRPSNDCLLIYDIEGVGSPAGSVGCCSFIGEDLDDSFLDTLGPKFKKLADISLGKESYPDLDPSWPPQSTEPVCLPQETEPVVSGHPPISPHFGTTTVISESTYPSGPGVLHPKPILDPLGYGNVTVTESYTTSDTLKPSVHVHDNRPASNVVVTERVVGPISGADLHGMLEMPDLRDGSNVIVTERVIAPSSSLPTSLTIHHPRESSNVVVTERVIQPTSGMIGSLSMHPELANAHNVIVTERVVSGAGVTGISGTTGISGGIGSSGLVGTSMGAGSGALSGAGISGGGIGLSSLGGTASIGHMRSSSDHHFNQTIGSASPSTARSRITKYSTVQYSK
UniProt P11142: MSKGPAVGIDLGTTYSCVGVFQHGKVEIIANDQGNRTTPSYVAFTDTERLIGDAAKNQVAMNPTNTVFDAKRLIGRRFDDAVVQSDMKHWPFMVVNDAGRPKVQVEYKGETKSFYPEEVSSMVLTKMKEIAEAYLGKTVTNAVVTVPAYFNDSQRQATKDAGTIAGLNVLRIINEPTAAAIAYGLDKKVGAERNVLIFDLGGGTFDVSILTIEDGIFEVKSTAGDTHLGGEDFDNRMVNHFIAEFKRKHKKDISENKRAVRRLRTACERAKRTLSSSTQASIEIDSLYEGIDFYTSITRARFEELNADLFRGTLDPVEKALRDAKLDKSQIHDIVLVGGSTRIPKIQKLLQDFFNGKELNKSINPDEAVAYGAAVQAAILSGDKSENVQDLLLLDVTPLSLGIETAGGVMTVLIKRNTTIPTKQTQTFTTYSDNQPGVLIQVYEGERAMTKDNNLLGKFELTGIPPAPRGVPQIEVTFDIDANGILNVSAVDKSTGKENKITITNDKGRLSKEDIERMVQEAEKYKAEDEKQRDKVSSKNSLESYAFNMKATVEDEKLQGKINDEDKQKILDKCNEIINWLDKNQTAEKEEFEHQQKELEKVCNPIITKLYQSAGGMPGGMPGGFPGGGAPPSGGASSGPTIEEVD
UniProt P07737: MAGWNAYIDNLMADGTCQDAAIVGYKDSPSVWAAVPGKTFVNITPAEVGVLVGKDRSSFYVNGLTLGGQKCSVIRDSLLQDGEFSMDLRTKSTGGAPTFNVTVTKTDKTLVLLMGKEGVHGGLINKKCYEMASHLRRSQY
UniProt O00303: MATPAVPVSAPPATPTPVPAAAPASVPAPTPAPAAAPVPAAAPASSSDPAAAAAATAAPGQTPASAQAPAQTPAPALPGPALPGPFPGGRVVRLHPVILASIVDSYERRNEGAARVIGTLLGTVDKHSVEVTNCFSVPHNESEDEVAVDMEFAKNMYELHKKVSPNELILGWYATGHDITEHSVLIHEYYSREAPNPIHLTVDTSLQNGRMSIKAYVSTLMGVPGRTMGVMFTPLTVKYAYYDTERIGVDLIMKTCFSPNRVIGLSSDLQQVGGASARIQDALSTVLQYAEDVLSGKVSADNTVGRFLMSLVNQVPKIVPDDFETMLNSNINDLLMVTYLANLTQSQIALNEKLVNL
UniProt P06748: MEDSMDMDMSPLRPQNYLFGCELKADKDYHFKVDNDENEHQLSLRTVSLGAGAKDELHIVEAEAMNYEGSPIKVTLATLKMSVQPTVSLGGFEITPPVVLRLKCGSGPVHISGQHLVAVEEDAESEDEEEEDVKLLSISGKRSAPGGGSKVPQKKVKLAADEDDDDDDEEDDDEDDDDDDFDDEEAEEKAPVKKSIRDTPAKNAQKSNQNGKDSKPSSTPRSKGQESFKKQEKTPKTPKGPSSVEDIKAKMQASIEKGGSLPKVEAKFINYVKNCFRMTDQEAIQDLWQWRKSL
UniProt P63104: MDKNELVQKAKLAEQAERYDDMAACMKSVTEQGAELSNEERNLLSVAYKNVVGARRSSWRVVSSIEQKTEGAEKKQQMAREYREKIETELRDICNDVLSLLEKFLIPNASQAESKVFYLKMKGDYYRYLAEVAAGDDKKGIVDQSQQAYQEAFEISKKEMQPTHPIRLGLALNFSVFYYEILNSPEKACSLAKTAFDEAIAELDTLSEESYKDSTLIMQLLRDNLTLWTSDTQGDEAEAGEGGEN
UniProt Q9NR30: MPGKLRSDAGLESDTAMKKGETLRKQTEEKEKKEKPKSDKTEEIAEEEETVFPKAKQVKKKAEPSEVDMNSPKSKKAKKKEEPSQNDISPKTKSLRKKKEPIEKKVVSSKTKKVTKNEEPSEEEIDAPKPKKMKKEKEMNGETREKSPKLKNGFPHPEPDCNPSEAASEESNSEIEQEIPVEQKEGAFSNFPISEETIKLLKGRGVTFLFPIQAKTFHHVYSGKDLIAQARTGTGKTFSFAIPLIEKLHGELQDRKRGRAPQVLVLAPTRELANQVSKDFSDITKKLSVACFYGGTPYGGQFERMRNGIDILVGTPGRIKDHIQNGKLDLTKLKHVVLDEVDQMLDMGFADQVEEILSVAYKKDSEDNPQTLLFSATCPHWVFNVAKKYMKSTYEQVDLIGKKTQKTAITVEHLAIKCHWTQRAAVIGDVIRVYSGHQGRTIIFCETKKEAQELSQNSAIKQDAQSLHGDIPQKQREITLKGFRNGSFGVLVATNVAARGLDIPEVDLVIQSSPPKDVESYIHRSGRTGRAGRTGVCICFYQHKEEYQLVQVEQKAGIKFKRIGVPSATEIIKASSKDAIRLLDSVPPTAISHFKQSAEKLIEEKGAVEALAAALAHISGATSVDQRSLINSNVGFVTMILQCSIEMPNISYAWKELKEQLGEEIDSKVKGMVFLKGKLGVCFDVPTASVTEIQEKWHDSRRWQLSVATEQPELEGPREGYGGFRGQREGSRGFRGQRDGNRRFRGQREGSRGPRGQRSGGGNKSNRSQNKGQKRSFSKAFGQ
UniProt P04792: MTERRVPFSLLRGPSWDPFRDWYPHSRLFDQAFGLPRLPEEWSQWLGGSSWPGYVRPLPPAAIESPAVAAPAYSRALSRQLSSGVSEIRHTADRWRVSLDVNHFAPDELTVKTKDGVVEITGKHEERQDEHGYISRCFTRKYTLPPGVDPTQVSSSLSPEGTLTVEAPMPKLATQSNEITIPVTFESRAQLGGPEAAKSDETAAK
UniProt P67809: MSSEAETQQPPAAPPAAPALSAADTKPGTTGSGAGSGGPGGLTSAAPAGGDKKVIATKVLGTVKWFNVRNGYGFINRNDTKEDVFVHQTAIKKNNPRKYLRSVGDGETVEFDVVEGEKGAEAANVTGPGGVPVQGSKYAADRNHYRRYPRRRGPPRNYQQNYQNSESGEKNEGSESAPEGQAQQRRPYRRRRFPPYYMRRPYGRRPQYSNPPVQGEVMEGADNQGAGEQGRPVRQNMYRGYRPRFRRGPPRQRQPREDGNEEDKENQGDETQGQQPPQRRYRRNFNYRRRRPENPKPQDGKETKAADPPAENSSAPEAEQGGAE

Target: myc-BirA*-eIF3A fusion protein (UniProt Q14152)
Assay: condition: only cells treated with 1 µM thapsigargin; proximity labelling; BioID as a1, but cells treated with 1 µM thapsigargin (ER stress) for 3 h before biotin for 6 h or 24 h

Row | binding | Substance
1 | no binding | CH60 (HSPD1) (from UniProt P10809 27-573)

Target: myc-BirA*-eIF3A fusion protein (UniProt Q14152)
Assay: proximity labelling; BioID as a1, but cells treated with 1 µM thapsigargin (ER stress) for 3 h before biotin for 6 h or 24 h

Row | binding | Substance
2 | binds | DSG1 (from UniProt Q02413 50-1049)

Target: myc-BirA*-eIF3A fusion protein (UniProt Q14152)
Assay: proximity labelling; BioID: myc-BirA*-eIF3A against the myc-BirA* control, transiently transfected HEK-293T and HCT-116 cells, 50 µM biotin for 6 h or 24 h; RIPA lysate, streptavidin magnetic beads, washes with 8 M urea, 1% Triton, 0.5 M NaCl, 20% acetonitrile; on-bead trypsin digestion, LC-MS/MS, label-free ratio BirA*-eIF3A to BirA* above 1.5; some hits also kept in cells pre-treated with 1 µM thapsigargin

Row | Substance | binding
3 | HORN (from UniProt Q86YZ3 1-2850) | binds
4 | HSP-7C (from UniProt P11142 1-646) | binds
5 | PROF1 (from UniProt P07737 1-140) | binds
6 | eIF3F (from UniProt O00303 1-357) | binds
7 | nucleophosmin (NPM1) (from UniProt P06748 1-294) | binds

Further lines, results first:

Row | binding | Substance
8 | binds | 14-3-3Z (from UniProt P63104 1-245)
9 | binds | CH60 (HSPD1) (from UniProt P10809 27-573)
10 | binds | DDX21 (from UniProt Q9NR30 1-783)
11 | binds | HSPB1 (from UniProt P04792 1-205)
12 | binds | YB-1 (from UniProt P67809 1-324)

Results are given in words; binding and its absence hold for the method and conditions named. In cells and extracts the contact can be indirect. A yes stands for co-enrichment or nearness to the bait. Other partners may have been found. For part of these data: A no says only that the protein was not detected with the bait.
